Source: publication PMC5057110
These are yes or no findings as the source states them, for the method shown. For some assays here: Tags and fused reporters may be left off the sequences shown. Values belong to the binder of their own block, whether it stands above or below them.

How the values were obtained:
[1] = molecular target: T1, endogenous CD93 on human monocytes (human (endogenous in monocytes)), Q9NPY3; experiment: single-particle fluorescence intensity (amplitude of diffraction-limited PSFs); CD93 on live cells labelled at low density with anti-human CD93 (clone R139) and Cy3 Fab; amplitude of individual PSFs normalised to the modal amplitude of the data set; 37 °C; details: remark: other sources report otherwise
T1 chain: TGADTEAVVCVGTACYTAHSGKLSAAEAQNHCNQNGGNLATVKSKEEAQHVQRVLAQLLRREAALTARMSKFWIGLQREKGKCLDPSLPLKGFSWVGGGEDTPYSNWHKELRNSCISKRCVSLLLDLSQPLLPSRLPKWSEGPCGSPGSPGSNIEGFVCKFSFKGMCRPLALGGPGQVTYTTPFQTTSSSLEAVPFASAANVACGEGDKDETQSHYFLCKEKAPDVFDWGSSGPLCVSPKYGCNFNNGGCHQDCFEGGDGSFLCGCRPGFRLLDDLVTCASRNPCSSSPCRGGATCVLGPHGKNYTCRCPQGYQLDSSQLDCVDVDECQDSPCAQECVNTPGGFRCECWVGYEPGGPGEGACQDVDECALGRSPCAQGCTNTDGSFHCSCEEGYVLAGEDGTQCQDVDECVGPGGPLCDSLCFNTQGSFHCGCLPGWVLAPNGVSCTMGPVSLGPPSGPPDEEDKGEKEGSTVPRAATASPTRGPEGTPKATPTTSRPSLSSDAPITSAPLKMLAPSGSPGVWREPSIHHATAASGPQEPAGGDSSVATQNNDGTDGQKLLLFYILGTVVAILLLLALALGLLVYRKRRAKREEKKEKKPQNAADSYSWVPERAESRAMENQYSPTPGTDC

[2] = molecular target: T2, human CD93-GFP ectopically expressed on Chinese Hamster Ovary cells (human), Q9NPY3; experiment: as above; details: remark: other sources report otherwise
T2 chain: T1 chain

- binding [1]: no binding
B1: endogenous CD93 on human monocytes, Q9NPY3 22-652 (receptor)
chain: T1 chain

- binding [2]: no binding
B2: human CD93-GFP ectopically expressed on Chinese Hamster Ovary cells, Q9NPY3 22-652 (receptor)
chain: T1 chain
